Experimental data from paper PMC5752836.

Biological target: T1, proline-rich transmembrane protein 2 (PRRT2) (mouse (endogenous in mouse brain)) (UniProt E9PUL5)
T1 sequence: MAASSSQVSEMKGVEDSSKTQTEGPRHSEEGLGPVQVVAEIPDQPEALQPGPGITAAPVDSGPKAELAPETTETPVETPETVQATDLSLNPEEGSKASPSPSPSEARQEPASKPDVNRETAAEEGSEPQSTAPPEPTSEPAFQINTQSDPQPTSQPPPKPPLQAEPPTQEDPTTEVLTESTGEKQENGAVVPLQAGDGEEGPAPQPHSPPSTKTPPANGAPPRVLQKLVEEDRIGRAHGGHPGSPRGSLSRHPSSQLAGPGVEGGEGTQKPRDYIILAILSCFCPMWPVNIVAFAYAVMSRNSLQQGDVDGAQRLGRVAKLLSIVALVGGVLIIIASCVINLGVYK
Test: co-IP; mouse brain lysates in ELB buffer (100 mM Tris, 10 mM EDTA, 300 mM NaCl, 0.2% NP-40, pH 7.5), anti-PRRT2 antibodies overnight at 4 °C, Protein G-Agarose, immunoblotting; controls: Prrt2Stop lysate, WT lysate pre-incubated with the epitope peptide

binding: no binding
Substance: SYS1 (mouse (endogenous in mouse brain))

These are yes or no findings as the source states them, for the method shown. In cells and extracts the contact can be indirect.
